Measured data: PubChem BioAssay AID602203 (INSERM, 2012)

Screen: 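Confirming genes that raise or lower cisplatin-induced death in A549 cells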 (follow-up of hits)
System: human A549 lung cancer cells
Knock-down reagent: siRNA pair against human genes
Treatment: cisplatin at a dose killing half of control-siRNA cells, given 48 h after transfection
Measurement: 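Two siRNAs per gene scored +1 protective, -1 sensitizing, 0 if toxic by LDH or growth-reducing by WST-1; cisplatin given 48 h later at 50% control kill; scores summed, mean death shift versus control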
Scale: summed siRNA score for cisplatin death: higher = more siRNAs reduced cisplatin-induced cell death; change in cisplatin death versus control: higher = fewer cells died than in control
Call rule: In these data the active calls have summed siRNA score for cisplatin death at about -3 or lower, or at about 3 or higher
In all, the deposit lists 999 reagents; below is a random part of them. Of all reagents, 85 (8.5%) were called active. 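Unclear how single-siRNA scores of -1, 0 or +1 give the printed -4 to 4 range; calls lie near -3 or 3 and beyond.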 Not stated in the record: the amount of reagent, the time to read-out, the dose of the treatment.

Target gene	summed siRNA score for cisplatin death	change in cisplatin death versus control (percentage points)	Call
OTOP3	0		inactive
MCL1	-3	-11.7	active
CFDP1	1		inactive
STEAP2	0		inactive
LOC285658	1		inactive
GUCY2D	-1		inactive
TMEM35A	1		inactive
CRY1	-1		inactive
MBD3L2	0		inactive
PARD3B	0		inactive
LOC391667	1		inactive
TINCR	-1		inactive
TAB1	0		inactive
CASP1	-2		inactive
BMPR1B	0		inactive
IL23R	-1		inactive
LOC391784	2		inactive
ABCA8	-2		inactive
LRRC37A6P	0		inactive
TPTEP2	0		inactive
LRP1B	0		inactive
P2RY14	1		inactive
CCR7	-1		inactive
BAIAP3	-3	-2.3	active
PIK3CD	0		inactive
PCSK1N	-1		inactive
RAP1GAP	0		inactive
CSNK1D	-1		inactive
RHOC	2		inactive
GTF3C4	1		inactive
LOC285544	-1		inactive
CEP135	0		inactive
PGRMC1	-2		inactive
DNER	1		inactive
ZNF10	-2		inactive
UBE2T	-3	-12	active
TBC1D23	-2		inactive
KLK3	-1		inactive
NACA	-2		inactive
ATPSCKMT	0		inactive
SP140L	-2		inactive
B4GALNT1	1		inactive
POMC	0		inactive
HDLBP	3	8.02	active
CLCA4	0		inactive
SLC16A9	1		inactive
LTA	-2		inactive
TP53TG3	1		inactive
UBE2C	-1		inactive
LOC146110	0		inactive
NOTCH3	0		inactive
PPY	-2		inactive
HAPLN1	2		inactive
ALK	3	12.1	active
GABRB2	1		inactive
MGC13275	-1		inactive
CLDN3	-2		inactive
SYCP2	1		inactive
IL32	-1		inactive
EGR3	1		inactive
ISG20	1		inactive
KRT5	0		inactive
CAMK4	1		inactive
ANGPTL3	-2		inactive
PLPPR4	1		inactive
LCE1C	1		inactive
BTN2A1	-1		inactive
LOC440029	0		inactive
LOC401581	0		inactive
CDC42BPG	0		inactive
NECTIN3	-1		inactive
ZNF503-AS2	-1		inactive
DSC2	-1		inactive
TSPO	2		inactive
KRT33B	-1		inactive
GSTM1	0		inactive
LOC440334	2		inactive
ROR1	1		inactive
AAR2	-2		inactive
MMP14	0		inactive
BST1	-2		inactive
LOC390667	-1		inactive
SECISBP2L	-1		inactive
SEC31B	2		inactive
PCDHA1	-1		inactive
ETF1	1		inactive
ALDH7A1	3	6.8	active
DYNLT3	0		inactive
SEC23IP	1		inactive
LOC388743	2		inactive
INPP5J	-1		inactive
ACHE	-3	-9.41	active
AXDND1	0		inactive
AMELY	1		inactive
LOC440748	1		inactive
DGKQ	2		inactive
LOC442180	1		inactive
POFUT1	-2		inactive
PLD3	-3	-10.8	active
CDC6	-1		inactive
MARK4	2		inactive
NOP16	1		inactive
RNF26	3	14.5	active
GLB1	-1		inactive
PHB1	-1		inactive
KCNK16	1		inactive
VPS45	0		inactive

A stretch of the results above:
Target gene	summed siRNA score for cisplatin death	change in cisplatin death versus control (percentage points)	Call
LCE1C	1		inactive
BTN2A1	-1		inactive
LOC440029	0		inactive
LOC401581	0		inactive
CDC42BPG	0		inactive
NECTIN3	-1		inactive
ZNF503-AS2	-1		inactive
